Laboratory results: paper PMC3499479
These are yes or no findings as the source states them, for the method shown. Some entries that bind do so weakly or less than the wild type.

Experiments:
Test in all cases: two-hybrid; FBX fused to Gal4-DB, ASK fused to Gal4-AD; yeast mating; selection on SD without Leu, Trp, His, Ade (high strength) or without Leu, Trp, His (low strength); every combination examined twice
[1] = molecular target: T1, F-box (FBX) protein At5g21040 (Arabidopsis thaliana) (UniProt Q94AD8)
T1 sequence: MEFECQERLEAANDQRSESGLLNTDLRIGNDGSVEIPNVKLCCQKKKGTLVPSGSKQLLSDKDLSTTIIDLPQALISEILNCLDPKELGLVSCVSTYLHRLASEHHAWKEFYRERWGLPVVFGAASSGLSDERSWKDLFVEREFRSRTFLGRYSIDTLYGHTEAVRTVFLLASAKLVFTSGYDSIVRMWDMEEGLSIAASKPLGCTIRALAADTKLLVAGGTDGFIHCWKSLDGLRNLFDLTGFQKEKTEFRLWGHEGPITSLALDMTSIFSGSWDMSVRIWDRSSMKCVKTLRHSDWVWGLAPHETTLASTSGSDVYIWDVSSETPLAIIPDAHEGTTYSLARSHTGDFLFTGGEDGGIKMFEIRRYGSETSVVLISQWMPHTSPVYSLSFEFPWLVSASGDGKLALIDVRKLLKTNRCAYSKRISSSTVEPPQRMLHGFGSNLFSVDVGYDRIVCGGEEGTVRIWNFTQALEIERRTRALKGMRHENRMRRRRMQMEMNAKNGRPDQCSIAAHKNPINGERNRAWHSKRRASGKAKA

[2] = molecular target: T2, F-box (FBX) protein At4g02310 (Arabidopsis thaliana) (UniProt O81414)
T2 sequence: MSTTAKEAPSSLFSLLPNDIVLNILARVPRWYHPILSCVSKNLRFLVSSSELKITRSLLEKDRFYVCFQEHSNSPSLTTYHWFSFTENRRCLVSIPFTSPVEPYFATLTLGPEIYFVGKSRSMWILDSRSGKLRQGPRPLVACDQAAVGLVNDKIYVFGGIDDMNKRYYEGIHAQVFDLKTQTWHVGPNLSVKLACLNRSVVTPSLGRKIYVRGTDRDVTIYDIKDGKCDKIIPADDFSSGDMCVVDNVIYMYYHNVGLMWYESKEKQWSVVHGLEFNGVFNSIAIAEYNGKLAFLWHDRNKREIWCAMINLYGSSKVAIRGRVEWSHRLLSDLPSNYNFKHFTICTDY

[3] = molecular target: T3, F-box (FBX) protein At4g29370 (Arabidopsis thaliana) (UniProt Q9M0E6)
T3 sequence: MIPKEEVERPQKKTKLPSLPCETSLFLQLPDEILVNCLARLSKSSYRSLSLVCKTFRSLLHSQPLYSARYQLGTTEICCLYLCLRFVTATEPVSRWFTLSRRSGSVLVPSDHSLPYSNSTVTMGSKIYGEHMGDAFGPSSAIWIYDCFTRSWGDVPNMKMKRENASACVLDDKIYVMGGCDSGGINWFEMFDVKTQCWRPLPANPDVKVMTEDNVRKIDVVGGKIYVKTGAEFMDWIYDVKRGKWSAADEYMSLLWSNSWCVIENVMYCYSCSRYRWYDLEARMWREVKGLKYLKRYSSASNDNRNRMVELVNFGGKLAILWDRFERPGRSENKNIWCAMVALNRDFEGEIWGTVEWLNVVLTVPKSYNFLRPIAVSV

[4] = molecular target: T4, F-box (FBX) protein At3g04660 (Arabidopsis thaliana) (UniProt Q9SR08)
T4 sequence: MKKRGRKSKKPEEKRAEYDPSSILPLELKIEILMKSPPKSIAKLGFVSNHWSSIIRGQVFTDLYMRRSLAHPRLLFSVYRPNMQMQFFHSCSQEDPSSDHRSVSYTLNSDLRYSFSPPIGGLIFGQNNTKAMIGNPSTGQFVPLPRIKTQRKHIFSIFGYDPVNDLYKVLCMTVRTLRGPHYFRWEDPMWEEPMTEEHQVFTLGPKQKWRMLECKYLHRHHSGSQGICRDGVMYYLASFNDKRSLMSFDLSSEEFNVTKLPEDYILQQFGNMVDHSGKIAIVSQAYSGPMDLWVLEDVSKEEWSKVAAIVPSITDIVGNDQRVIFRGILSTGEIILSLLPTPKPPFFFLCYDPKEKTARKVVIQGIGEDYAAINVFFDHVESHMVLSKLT

[5] = molecular target: T5, F-box (FBX) protein At2g22030 (Arabidopsis thaliana) (UniProt Q9SI02)
T5 sequence: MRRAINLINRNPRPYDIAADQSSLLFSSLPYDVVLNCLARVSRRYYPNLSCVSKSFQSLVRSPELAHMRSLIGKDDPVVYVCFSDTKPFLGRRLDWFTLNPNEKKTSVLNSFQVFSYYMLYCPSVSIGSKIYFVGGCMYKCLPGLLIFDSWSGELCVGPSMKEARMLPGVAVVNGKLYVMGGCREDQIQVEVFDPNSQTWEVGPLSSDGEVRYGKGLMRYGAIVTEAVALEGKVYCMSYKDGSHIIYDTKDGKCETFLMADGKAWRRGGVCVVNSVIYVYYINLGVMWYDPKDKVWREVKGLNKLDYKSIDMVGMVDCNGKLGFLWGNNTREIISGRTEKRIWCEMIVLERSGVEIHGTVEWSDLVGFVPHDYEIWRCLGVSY

[6] = molecular target: T6, F-box (FBX) protein At3g17490 (Arabidopsis thaliana) (UniProt Q9LUP8)
T6 sequence: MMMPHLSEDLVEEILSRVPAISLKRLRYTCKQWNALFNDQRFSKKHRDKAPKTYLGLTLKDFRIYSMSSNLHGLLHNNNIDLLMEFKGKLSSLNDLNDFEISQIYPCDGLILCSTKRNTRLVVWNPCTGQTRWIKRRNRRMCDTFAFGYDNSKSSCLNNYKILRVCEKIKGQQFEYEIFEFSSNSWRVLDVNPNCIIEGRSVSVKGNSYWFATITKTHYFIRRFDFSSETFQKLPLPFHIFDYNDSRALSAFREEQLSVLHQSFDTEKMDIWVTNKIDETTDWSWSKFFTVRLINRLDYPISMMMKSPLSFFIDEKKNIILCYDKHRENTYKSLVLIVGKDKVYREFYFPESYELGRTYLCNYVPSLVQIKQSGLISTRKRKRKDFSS

[7] = molecular target: T7, F-box (FBX) protein At3g22940 (Arabidopsis thaliana) (UniProt Q9LIK3)
T7 sequence: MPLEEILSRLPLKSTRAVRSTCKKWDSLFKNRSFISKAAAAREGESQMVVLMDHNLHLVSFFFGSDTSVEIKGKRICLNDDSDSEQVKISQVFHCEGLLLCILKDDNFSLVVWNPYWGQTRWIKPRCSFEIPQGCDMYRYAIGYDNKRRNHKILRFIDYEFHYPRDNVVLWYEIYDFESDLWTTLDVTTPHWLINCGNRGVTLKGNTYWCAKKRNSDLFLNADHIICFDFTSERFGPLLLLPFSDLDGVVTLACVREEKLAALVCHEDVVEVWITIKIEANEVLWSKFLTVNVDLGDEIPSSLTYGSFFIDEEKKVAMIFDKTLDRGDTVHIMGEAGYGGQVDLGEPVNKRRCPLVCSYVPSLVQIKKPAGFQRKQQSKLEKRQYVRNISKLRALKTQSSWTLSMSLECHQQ

[8] = molecular target: T8, F-box (FBX) protein At2g07140 (Arabidopsis thaliana) (UniProt Q9ZV78)
T8 sequence: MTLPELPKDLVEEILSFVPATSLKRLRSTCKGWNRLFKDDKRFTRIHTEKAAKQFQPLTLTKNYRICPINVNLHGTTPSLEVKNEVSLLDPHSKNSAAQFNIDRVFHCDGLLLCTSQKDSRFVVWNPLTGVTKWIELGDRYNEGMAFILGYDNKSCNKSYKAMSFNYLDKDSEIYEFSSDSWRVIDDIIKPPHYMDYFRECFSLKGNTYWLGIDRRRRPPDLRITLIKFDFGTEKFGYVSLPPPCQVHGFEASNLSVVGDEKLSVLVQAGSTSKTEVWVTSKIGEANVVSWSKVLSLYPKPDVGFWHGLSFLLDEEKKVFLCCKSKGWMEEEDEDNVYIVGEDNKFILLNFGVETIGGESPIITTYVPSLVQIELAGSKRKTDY

Measured: binding

B1: Arabidopsis SKP1-LIKE 13 (ASK13) (protein, UniProt Q9M1X5 1-154)
chain: MSKMVMLLSSDGESFQVEEAVAVQSQTIAHMIEDDCVANGVPIANVTGVILSKVIEYCKKHVVSDSPTEESKDELKKWDAEFMKALEQSSTLFDVMLAANYLNIKDLLDLGCQTVADMITGKKPDEIRALLGIENDFTPEEEEEIRKENQWAFE
binds: [1] | [2] | [3] | [4] | [5]

B2: Arabidopsis SKP1-LIKE 18 (ASK18) (protein, UniProt Q9SY65 1-158)
chain: MSSNKILLTSSDGESFEIDEAVARKFLIIVHMMEDNCAGEAIPLENVTGDILSKIIEYAKMHVNEPSEEDEDEEAKKNLDSWDAKFMEKLDLETIFKIILAANYLNFEGLLGFASQTVADYIKDKTPEEVREIFNIENDFTPEEEEEIRKENAWTFNE
binds: [6] | [7] | [8]
